The inconclusive results got no clear call from the source; some entries with a clear call stand among them for comparison. Entries that show only a call come without a potency. Potencies beside an inconclusive call are fits to weak or partial responses and may not hold up. Active and inactive are the calls of the source. Calls follow the shape of the full dose curve.
Experiment: Normal 1 Cell Viability Secondary Assay for qHTS Assay for Epigenetic Modulators
Conditions: Normal 1 bronchial epithelial viability, MTS, 4 d
Excerpt: NIH Molecular Libraries Screening Centers Network [MLSCN] NIH Chemical Genomics Center [NCGC] MLSCN Grant: 1 X01 MH079860-01 Assay Provider: Elisabeth D. Martinez, University of Texas SW Medical Center NCGC Assay Overview: This secondary assay characterizes selected actives identified in the qHTS of the Locus Derepression (LDR) assay (PubChem AID 597). The LDR assay detects the derepression of a GFP reporter that is stably integrated in a region of the genome of murine c127i mammary cells that is presumably silenced. Compounds that cause derepression of the locus to express GFP are identified by enumerating GFP positive cells using a laser-scanning microplate cytometer. […] Normal 1 cell viability was measured using Cell Titer 96 AQueous One (Promega), an assay which detects the ability of metabolically active cells to reduce a tetrazolium salt substrate (MTS), into a soluble formazan product that can be measured by colorimetry.
NCGC Assay Protocol Summary Normal 1 cells were plated in 96-well flat bottom tissue culture dishes (Corning) and grown overnight at 37 C and 5% CO2, then treated with compounds, incubated 4 days, and assayed for viability using the Cell Titer 96 AQueous One kit (Promega) according to the manufacturer's protocol. Absorbance at 490 nm and 650 nm (reference) was measured by a Spectra Max (Molecular Devices). […]

Structure (SMILES) | Potency | outcome
O=C(CSc1cccc2cccnc12)N1CCCC1 | inconclusive: 20 µM | –
CN1C(=S)SC(c2ccccc2)N(C)C1c1ccccc1 (configuration not stated) | – | inactive

— PubChem BioAssay AID1038 (National Center for Advancing Translational Sciences (NCATS), 2008)
